These are yes or no findings as the source states them, for the method shown. In cells and extracts the contact can be indirect. Some results given as binding are weak or reduced against the parent protein; the word gives no strength.

Sequences of proteins named here, by UniProt entry; tags and fusion partners are left off. Residues count along the entry.
UniProt P68404: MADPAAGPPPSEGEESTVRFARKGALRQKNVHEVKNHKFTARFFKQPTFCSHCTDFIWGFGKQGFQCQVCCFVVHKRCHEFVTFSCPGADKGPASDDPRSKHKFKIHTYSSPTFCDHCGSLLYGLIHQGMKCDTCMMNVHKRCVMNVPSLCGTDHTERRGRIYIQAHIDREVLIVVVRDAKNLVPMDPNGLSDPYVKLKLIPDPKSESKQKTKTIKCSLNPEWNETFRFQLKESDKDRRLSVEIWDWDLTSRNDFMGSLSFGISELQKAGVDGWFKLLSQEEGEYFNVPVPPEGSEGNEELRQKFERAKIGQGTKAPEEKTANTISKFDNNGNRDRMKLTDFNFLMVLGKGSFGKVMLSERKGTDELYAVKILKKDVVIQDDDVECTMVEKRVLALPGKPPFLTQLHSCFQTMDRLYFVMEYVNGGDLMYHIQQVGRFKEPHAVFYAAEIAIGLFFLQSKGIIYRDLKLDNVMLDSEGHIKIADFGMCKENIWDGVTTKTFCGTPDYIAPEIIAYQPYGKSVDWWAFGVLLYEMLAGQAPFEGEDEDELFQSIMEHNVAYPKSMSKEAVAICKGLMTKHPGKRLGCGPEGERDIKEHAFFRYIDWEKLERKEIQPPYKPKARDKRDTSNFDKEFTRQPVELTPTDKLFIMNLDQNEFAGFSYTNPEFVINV
UniProt Q9QUK6, residues 26-835: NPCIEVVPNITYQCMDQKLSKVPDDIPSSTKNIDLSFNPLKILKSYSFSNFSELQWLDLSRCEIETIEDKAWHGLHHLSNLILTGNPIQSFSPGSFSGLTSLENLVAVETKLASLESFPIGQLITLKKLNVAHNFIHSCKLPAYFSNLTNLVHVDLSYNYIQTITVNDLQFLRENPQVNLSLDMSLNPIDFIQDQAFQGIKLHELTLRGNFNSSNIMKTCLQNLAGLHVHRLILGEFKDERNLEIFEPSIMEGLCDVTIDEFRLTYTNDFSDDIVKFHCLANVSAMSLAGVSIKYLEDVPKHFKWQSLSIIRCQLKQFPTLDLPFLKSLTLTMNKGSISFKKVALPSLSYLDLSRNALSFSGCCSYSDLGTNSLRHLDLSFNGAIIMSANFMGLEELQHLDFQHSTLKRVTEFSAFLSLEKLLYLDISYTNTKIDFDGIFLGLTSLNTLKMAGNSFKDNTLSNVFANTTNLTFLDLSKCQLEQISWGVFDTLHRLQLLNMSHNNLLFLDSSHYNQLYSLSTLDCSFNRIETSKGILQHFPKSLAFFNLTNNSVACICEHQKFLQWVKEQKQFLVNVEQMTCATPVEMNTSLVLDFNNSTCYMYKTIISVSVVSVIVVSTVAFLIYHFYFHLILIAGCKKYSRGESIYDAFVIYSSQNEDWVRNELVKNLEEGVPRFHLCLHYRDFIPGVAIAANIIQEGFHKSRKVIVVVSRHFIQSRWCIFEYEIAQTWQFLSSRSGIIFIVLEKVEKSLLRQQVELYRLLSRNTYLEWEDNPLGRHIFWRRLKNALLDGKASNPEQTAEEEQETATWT
UniProt Q62151, residues 23-402: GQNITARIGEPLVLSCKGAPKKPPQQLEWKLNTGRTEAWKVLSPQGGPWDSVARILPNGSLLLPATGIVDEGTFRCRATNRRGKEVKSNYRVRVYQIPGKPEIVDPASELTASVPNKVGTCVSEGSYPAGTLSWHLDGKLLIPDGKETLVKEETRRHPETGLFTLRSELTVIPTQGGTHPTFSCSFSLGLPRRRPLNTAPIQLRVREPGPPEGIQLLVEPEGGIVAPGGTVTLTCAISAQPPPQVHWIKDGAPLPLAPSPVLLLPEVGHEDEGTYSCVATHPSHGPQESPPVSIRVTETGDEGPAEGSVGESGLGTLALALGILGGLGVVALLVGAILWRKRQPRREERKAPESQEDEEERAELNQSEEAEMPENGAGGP

In assay [1] the target is phospho-PKCβ1 (mouse (endogenous in BMDCs)) (UniProt P68404). Kind of assay: co-IP; extracts from mouse BMDCs in lysis buffer (50 mmol/L Tris pH 7.5, 150 mmol/L NaCl, protease and phosphatase inhibitors), 500 μg; protein A:protein G beads with polyclonal TLR4 antibody or polyclonal phospho-PKCβ1 antibody (2 μg), 4 h at 4℃; western blot. For orientation: Immunoblotting shows a protein as a band on a membrane.

The target in assay [2] is toll-like receptor 4 (mouse (endogenous in BMDCs)) (UniProt Q9QUK6). Described as above.

For “receptor for advanced glycation end products (from UniProt Q62151 23-402)”, the binding result in assay [1] and in assay [2] was “binds” in each case. As to “phospho-PKCβ1 (from UniProt P68404 1-671) (enzyme)”, the binding result in assay [2] is on record as “binds”.

The record behind these values is PMC8780245.
